{"source": "patent US8349579B2", "about": "“Galectin-3 cleavage as a marker for matrix metalloproteinase activity in cancer” (Wayne State University, priority 2007, dated 2013)", "system": "MMP-2 and -9", "assay": "Cleavage of galectin-3 mutants substituted around the MMP cleavage site", "assay_type": "biochemical, human"}
{"substance": "Y63P: galectin-3 mutant with Y63P substitution around the MMP cleavage site", "values": [{"measurement": "cleavage at the Ala62-Tyr63 site", "value": "resistance to cleavage"}, {"measurement": "polypeptide produced from the new cleavage site", "setting": "alternate cleavage at Gly32-Ala33", "value": "~27", "unit": "kDa"}]}
